In the supplement of paper PMC3334620:
Whole data set: some 33,000 sequences, median “E-score (-0.5 to 0.5)” near -0.015, cut for the highest 2% near 0.3. The list shows a part of the results.

molecular target: T1, Abf1 (UniProt P14164); experiment: PBM E-score (8-mer binding enrichment) (E-score (-0.5 to 0.5)); higher = stronger / more preferred TF binding; details: protein concentration: 200 nM; construct: GST-full length
T1 sequence: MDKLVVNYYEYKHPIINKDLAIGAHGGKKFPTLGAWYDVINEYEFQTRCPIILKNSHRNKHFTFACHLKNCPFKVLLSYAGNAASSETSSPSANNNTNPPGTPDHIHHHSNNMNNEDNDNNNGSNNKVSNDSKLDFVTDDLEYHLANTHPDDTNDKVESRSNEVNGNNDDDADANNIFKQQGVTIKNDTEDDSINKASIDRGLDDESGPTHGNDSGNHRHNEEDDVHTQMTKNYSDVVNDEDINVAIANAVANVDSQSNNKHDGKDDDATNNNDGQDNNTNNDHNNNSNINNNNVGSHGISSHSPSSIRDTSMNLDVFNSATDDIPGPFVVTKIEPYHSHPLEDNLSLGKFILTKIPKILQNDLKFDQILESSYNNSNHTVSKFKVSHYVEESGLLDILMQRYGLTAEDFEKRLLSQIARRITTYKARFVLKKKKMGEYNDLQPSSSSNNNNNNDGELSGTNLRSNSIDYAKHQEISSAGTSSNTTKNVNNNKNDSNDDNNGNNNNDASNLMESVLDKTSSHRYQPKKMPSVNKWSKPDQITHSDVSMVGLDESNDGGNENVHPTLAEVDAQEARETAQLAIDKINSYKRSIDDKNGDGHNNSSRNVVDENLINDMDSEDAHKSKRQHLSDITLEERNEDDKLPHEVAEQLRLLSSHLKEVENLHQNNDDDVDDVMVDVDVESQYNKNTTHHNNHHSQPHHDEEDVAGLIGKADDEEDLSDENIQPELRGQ
Summary of the method: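 Using PURExpress in vitro transcription/translation, GST-tagged yeast transcription factors were made in full-length or DNA-binding-domain form. These were applied at about 100-200 nM to double-stranded universal all-10-mer Agilent arrays, and bound protein was detected with fluorescent anti-GST. Scans were normalised with masliner before the Universal PBM Analysis Suite assigned E-scores to ungapped eight-base words pooled with their reverse complements.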

Sequence	PBM E-score
GTTAGGCA	-0.238
CGTTGGCA	0.129
AACATCGT	0.236
GATAAACC	0.165
GGGGTTGA	-0.0538
CTAGAGAC	-0.201
GACCTCTC	-0.047
CTCGGAAG	-0.176
AACTACCG	0.00871
AAAGGGTG	-0.0403
CCTACCGA	-0.148
ACGGATTG	0.22
GATGCTGC	-0.196
ACATGTGC	0.0714
CGGGTCGA	-0.105
ACTTTGAG	0.086
AGTAAATG	0.126
AACGATCC	-0.00029
CAAGCCGC	-0.184
ATTGCATG	0.0833
GCTTTGTA	0.158
CCCTGCCC	-0.24
CAGTCCTC	-0.151
ATCCCGTC	-0.0101
AATGGTCG	-0.0391

Five records picked at random from those above:
Sequence	PBM E-score
CAAGCCGC	-0.184
CCCTGCCC	-0.24
CCTACCGA	-0.148
ACGGATTG	0.22
AATGGTCG	-0.0391

Continuation.

Sequence	PBM E-score
AAGGGGGT	-0.379
ACGGTACA	0.214
CAAAGGAG	-0.199
CATGACGA	0.374
TCATGAGA	0.138
GCGCCGTA	0.291
CACTGATG	-0.0715
ATAAAGAG	-0.0776
AAACGTGT	0.0388
GACGGCCA	0.0316
CAAGCCCG	-0.172
ATAAGTCA	0.169
ACTTATAA	0.00352
TCTGAGAA	0.0923
GAAGTTAC	0.179
CCAATACA	-0.169
GATTGTAC	-0.114
ATCGCGAG	0.138
AGTAGCAG	-0.05
GGGAGCAC	-0.278
TACCAGCA	0.0002
ATCATTCG	0.332
CACCATAA	0.073
AGATGGCG	0.0792
GTATTTTA	0.0901

Sequence	PBM E-score
ACCTGTGA	0.0512
AGGTGTGG	-0.0954
GTCTAGGA	-0.0207
AAGTCCGA	-0.109
TAAAGGGA	-0.112
AGATACGG	0.129
GATATAGC	0.228
CAAGCCCA	-0.227
CAATCGAA	0.102
AACTGGTG	-0.0816
AAGCTGGA	-0.153
CACCATCA	-0.134
TAGAGGCA	-0.138
GTTTCTCA	-0.0255
GGGGAAAC	-0.187
GTATTGAC	0.00364
ACGACCGA	0.0201
CTCATGGA	0.00022
ATCCAATG	-0.158
AAGAGACC	-0.0347
GGGATGTA	0.0488
CCAGGAGC	-0.267
GACACTCC	-0.012
GACACATC	0.00853
AAGAGCCA	-0.0178

Sequence	PBM E-score
CTGCGATA	0.0546
CCTTTTAA	0.0637
GGAAACCC	-0.156
GCGTTAAA	0.118
AAACCAAT	0.137
GCATATCA	0.319
GCCTTTCC	-0.0427
CAGCTAAA	-0.108
CAACATGA	0.159
AGCAGTAT	0.0121
GGGGAGAC	-0.242
AACGTATT	0.148
ATCCACTA	0.0769
CTCCCGAA	-0.115
CACAGTGC	-0.0692
CTTCACGC	0.135
CCTTTCCG	-0.0908
AACTCAGA	-0.0967
AAAATGCA	-0.0998
CCATGGCG	-0.0796
CCGATTGA	0.0352
AACGTGAT	0.327
CCAAAATC	0.0893
AAATTTTA	0.0691
GCGCCACA	-0.0558

Sequence	PBM E-score
AGACGCCC	-0.142
AATTACAG	0.0441
CCTATCCC	0.0149
ATGTGCCA	0.0289
ATCCTGAG	0.0562
CCACTGGA	-0.125
CTTAAAGC	0.115
ACCCAGTC	-0.124
CGAAGCAA	0.105
CGCTCAAG	0.00588
TCCCAACA	-0.0284
CCTCAACA	0.0393
AGTCCTAT	-0.176
CAGTTCCA	-0.227
CACACTGC	-0.17
CCCGCGAG	0.0427
AAAATCAC	0.352
CGAACCAA	0.0494
AAAGTTCG	0.0641
GGACTTAA	-0.101
GTAGAAAC	-0.0136
ATTTGCTA	0.0209
AAAATTTT	0.0368
AACCGTAG	0.238
AAGGTGAA	-0.118

Sequence	PBM E-score
AGTCAAGA	0.138
CTTACCTC	-0.145
ACGCTGCG	-0.193
ATCCCAGC	0.099
CGAAAAAA	0.193
GATGTTAC	0.144
AGCCACTC	-0.0968
GGCATAGA	0.0186
CGCTGCAG	-0.278
TCAGAGGA	-0.219
AAGTAGTC	-0.00394
CAAGGCCG	-0.217
AAGTGGCT	-0.149
CGTCCCTC	0.113
CCGTTTCC	-0.2
GGGATGGA	-0.117
TAACGTGA	0.16
CCGAAAGC	-0.2
CATGTTCG	0.0859
GCAGACTA	-0.0428
CCGTTGAC	-0.0281
ACCGTCTC	0.105
ATGTAAAA	0.152
CCTTTCCC	-0.0559
ACACCTAC	0.0651

Three neighbouring entries from above:
Sequence	PBM E-score
TCAGAGGA	-0.219
AAGTAGTC	-0.00394
CAAGGCCG	-0.217

Next entries

Sequence	PBM E-score
AAAGATCA	0.164
ATCAAGGA	-0.026
ACCGACCA	0.0523
AGGGAGCG	-0.135
ATGCCTTC	-0.283
AGCGGTTA	-0.056
CTGGTGTA	-0.188
CCATCTCG	-0.111
ACGATTGG	0.224
ATATTCAT	-0.0447
CATACCGG	-0.0253
ATGGATTG	-0.0113
CTTATCAA	0.164
CTCTTATC	0.201
CAAGGTAA	0.0843
AAAATCAG	0.193
GGCTGGCA	-0.227
AGAGAAGC	-0.262
AGTACTAC	0.127
GCTCTACA	-0.114
ATTCATAC	0.287
AACCATCA	-0.07
CTAAAAAA	0.149
ATGAGTGC	0.153
ATGCAAAT	-0.0423

Sequence	PBM E-score
GATTTTAA	0.134
ACAACAGG	-0.0968
ATGGAGAG	-0.009
CGAGGCCA	-0.118
CATAGCTA	-0.253
GTCGGATA	0.0968
ACTATATC	0.243
CCCGTGAC	0.194
AATCTCCT	-0.114
GGGGACCC	-0.32
AGGCGACG	0.018
CGCGGAAC	0.00711
GGCGACAA	0.0843
ACAGCCAA	-0.138
CAGGGCGC	0.0743
TCAGTCAA	-0.054
GATTGCGC	-0.139
AGCGGAGA	-0.0933
CCCTAAGG	-0.082
AGTGTAAG	0.0585
ACAAGGGC	-0.36
ACAGGCCA	-0.17
ACTGGTTA	0.0319
ACTTTAAC	-0.0969
ATTTTGGC	-0.0144

Sequence	PBM E-score
AGAAGTAG	0.0896
CAGTTGTA	-0.0481
CGTCAATC	0.203
ATATCCCA	0.0961
CAACGTTC	-0.145
ATTTCACC	-0.00781
TACCCCGA	-0.0628
GTACAAAA	0.344
ACTCAAGG	-0.101
ATCGTGTG	0.196
CTGTTGAA	0.128
AGGTTGGA	-0.005
CTTTCCTA	-0.0657
GACAAGCC	0.149
ACCCTGCT	-0.0817
CGTCGACA	0.1
ACTCTCAG	-0.135
CCATGAGC	0.0173
CTCCGAAC	0.137
